The test concerns MX-1 breast xenograft, nude mice, tumor weight T/C. The experiment in a line: NCI In Vivo Anticancer Drug Screen. Data for tumor model Human Mammary Carcinoma MX-1 Xenograft (intrarenal inoculation) in NU/NU Swiss (nude) mice. The note with it: T/C endpoint: mean tumor weight change, higher T/C = larger tumour; for T/C: evaluated on day 11. The method, then:
The antitumor activity of compounds was measured in mice bearing transplantable tumors. Survival or tumor size were measured and the results are expressed as the measurement made in the treated group (T) divided by the measurement made in the vehicle treated control group (C). The tumor model used in this assay is Human Mammary Carcinoma MX-1 Xenograft (intrarenal inoculation) in NU/NU Swiss (nude) mice
(In general: A xenograft is tissue or cells of one species grown in another, often human tumour cells in immunodeficient mice.)

Where [1] appears, read: dose: 200.0 mg/kg/injection, schedule: Q01DX010 (sc), vehicle: saline with Tween-80.
The mark [2] stands for this setting: dose: 400.0 mg/kg/injection, schedule: Q01DX010 (sc), vehicle: Klucel (hydroxypropylcellulose) (HPC).
[3] abbreviates: dose: 300.0 mg/kg/injection, schedule: Q04DX003 (sc), vehicle: saline with Tween-80.
[4] abbreviates: dose: 100.0 mg/kg/injection, schedule: Q01DX010 (sc), vehicle: Klucel (hydroxypropylcellulose) (HPC).
[5] abbreviates: dose: 1200.0 mg/kg/injection, schedule: Q04DX003 (sc), vehicle: saline with Tween-80.
[6] abbreviates: dose: 600.0 mg/kg/injection, schedule: Q04DX003 (sc), vehicle: saline with Tween-80.
Setting [7] is: dose: 1200.0 mg/kg/injection, schedule: Q04DX003 (sc), vehicle: Klucel (hydroxypropylcellulose) (HPC).

The list does not hold the whole screen: it is rich in T/C values a quarter to a half above the control, in often repeated tests (any T/C) and in doses without a T/C. Further doses and runs are listed elsewhere. T/C gives the treated animals as a percentage of the vehicle group. Schedule codes are those of the source, taken here to give the interval after Q, in days (D) or hours (H), and the number of doses after X. Some T/C values are followed by the survivors on the day toxicity was checked, most often the fifth; without a count, all were alive then. Some doses have a count of surviving animals in place of a T/C: the source holds a T/C of zero for them, seemingly a mark for toxic or unscored doses. Survivors were counted at the toxicity check, usually on the fifth day, unless a day is given; later deaths do not show. Some doses were run more than once; the results are listed from low to high.

Turning to `CC1OC(=O)C(C(C)C)NC(=O)C(C(C)C)OC(=O)C(C(C)C)NC(=O)C(C)OC(=O)C(C(C)C)NC(=O)C(C(C)C)OC(=O)C(C(C)C)NC(=O)C(C)OC(=O)C(C(C)C)NC(=O)C(C(C)C)OC(=O)C(C(C)C)NC1=O` (configuration not stated), the T/C (dose: 5.0 mg/kg/injection, schedule: Q01DX010 (sc), vehicle: saline with Tween-80) was 137 % of control. For the setting “dose: 40.0 mg/kg/injection, schedule: Q01DX010 (sc), vehicle: saline with Tween-80”, the survivor count is 0 of 3 on day 11.
On to `O=C(N/N=C\c1cc(Br)cc(Br)c1O)N/N=C/c1cc(Br)cc(Br)c1O`, for which the T/C (dose: 100.0 mg/kg/injection, schedule: Q01DX010 (sc), vehicle: saline with Tween-80) was 129 % of control and the T/C under setting [1] is 129 % of control.
Regarding `CCCCCC[C@H]([C@H](C)O)n1cnc2c(N)ncnc21`, the survivor count under setting [2] is 1 of 3 on day 11.
With `COc1cc(OC)c(OC)cc1/C=C\c1ccnc2ccccc12`, the T/C (dose: 2400.0 mg/kg/injection, schedule: Q04DX003 (sc), vehicle: Klucel (hydroxypropylcellulose) (HPC)) was 137 % of control.
For `COC(=O)c1ccoc1`, under “dose: 1200.0 mg/kg/injection, schedule: Q04DX003 (sc), vehicle: saline”, the survivor count is 0 of 6 on day 11.
Turning to `C[Si](C)(C)n1nnn(-c2ccccc2)c1=O`, the T/C under setting [3] is 135 % of control.
Regarding `CO[C@@]12[C@H](COC(N)=O)C3=C(C(=O)C(C)=C(N)C3=O)N1C[C@@H]1N[C@@H]12`, the survivor count by setting is: (dose: 12.0 mg/kg/injection, schedule: Q04DX003 (sc), vehicle: saline) 0 of 6 on day 11, 1 of 6 on day 11, 3 of 6 on day 11; (dose: 24.0 mg/kg/injection, schedule: Q04DX003 (sc), vehicle: saline) 0 of 6 on day 11.
Regarding `Cn1c2nc(=O)n(-c3ccccc3)c(=O)c-2nc2c1CCCC2`, the survivor count under setting [3] was 3 of 6 on day 11.
Take `CC1=CC(C)(C)Nc2ccc(CSc3ccccc3)cc21`: the T/C by setting is: (dose: 12.5 mg/kg/injection, schedule: Q01DX010 (sc), vehicle: saline + Tween-80 + alcohol) 141 % of control; (dose: 400.0 mg/kg/injection, schedule: Q01DX010 (sc), vehicle: saline + Tween-80 + alcohol) 136 % of control [2 of 2 alive on day 11].
In the case of `O=[N+]([O-])/C=C\c1ccc2c(c1)OCO2`, the survivor count was 1 of 3 on day 11 under setting [4]; 1 of 2 on day 11 under setting [2]; 1 of 3 on day 11 (dose: 800.0 mg/kg/injection, schedule: Q01DX010 (sc), vehicle: Klucel (hydroxypropylcellulose) (HPC)).
With `CC(C)=CCNc1ncnc2c1ncn2C1OC(CO)C(O)C1O` (configuration not stated), the T/C reads like this: (dose: 200.0 mg/kg/injection, schedule: Q04DX003 (sc), vehicle: suspension in saline) 127 % of control; (dose: 400.0 mg/kg/injection, schedule: Q04DX003 (sc), vehicle: suspension in saline) 125 % of control. The survivor count (dose: 800.0 mg/kg/injection, schedule: Q04DX003 (sc), vehicle: suspension in saline) is 3 of 6 on day 11.
As to `CC1(C)OC1CS(=O)c1ccccc1` (configuration not stated), the T/C under setting [3] was 125 % of control. The survivor count reads like this: under setting [5], 2 of 6 on day 11; (dose: 2400.0 mg/kg/injection, schedule: Q04DX003 (sc), vehicle: saline with Tween-80) 0 of 6 on day 11.
For the molecule `CC1(C)CC1(Br)Br`, the T/C (dose: 50.0 mg/kg/injection, schedule: Q01DX010 (sc), vehicle: saline with Tween-80) is 125 % of control.
`CC/C(=C(\c1ccccc1)c1ccc(OCCN(C)C)cc1)c1ccccc1`: the survivor count reads like this: under setting [4], 1 of 2 on day 11; (dose: 200.0 mg/kg/injection, schedule: Q01DX010 (sc), vehicle: Klucel (hydroxypropylcellulose) (HPC)) 1 of 2 on day 11; under setting [2], 1 of 3 on day 11.
Take `COc1ccc(-c2csc(=[N+]3CCCCC3)s2)cc1`: the survivor count (dose: 25.0 mg/kg/injection, schedule: Q04DX003 (sc), vehicle: water) is listed as 3 of 6 on day 11.
With `O=C1C2CC=CCC2C(=O)N1SC(Cl)(Cl)Cl` (configuration not stated), the survivor count is on record as 2 of 6 on day 11 under setting [6] and 1 of 6 on day 11 under setting [5].
Turning to `NC(C/[N+]([O-])=N/O)C(=O)O` (configuration not stated), the survivor count is reported as 0 of 3 on day 11 (dose: 200.0 mg/kg/injection, schedule: Q01DX010 (sc), vehicle: saline) and 0 of 3 on day 11 (dose: 400.0 mg/kg/injection, schedule: Q01DX010 (sc), vehicle: saline).
For `CC1(CO)C(O)CCC2(C)C1CCC1CC3CC12CCC3(O)CO` (configuration not stated), the survivor count under setting [1] is 1 of 3 on day 11 and the survivor count (dose: 400.0 mg/kg/injection, schedule: Q01DX010 (sc), vehicle: saline with Tween-80) was 0 of 3 on day 11.
As to `CCCCCC(=O)O[C@]1(C(C)=O)CC[C@H]2[C@@H]3CCC4=CC(=O)CC[C@]4(C)[C@H]3CC[C@@]21C`, the T/C (dose: 300.0 mg/kg/injection, schedule: Q04DX003 (sc), vehicle: Klucel (hydroxypropylcellulose) (HPC)) is 138 % of control and the T/C under setting [7] is 129 % of control.
For `COC1N(C2CC(O)C(CO)O2)C(=O)NC(=O)C1(F)Br` (configuration not stated), the T/C (dose: 25.0 mg/kg/injection, schedule: Q01DX010 (sc), vehicle: saline) was 133 % of control. Besides, the survivor count is, setting by setting: (dose: 50.0 mg/kg/injection, schedule: Q01DX010 (sc), vehicle: saline) 0 of 3 on day 11; (dose: 100.0 mg/kg/injection, schedule: Q01DX010 (sc), vehicle: saline) 0 of 3 on day 11.
In the case of `CC1=C(C)C(=O)O[C@@H]([C@](C)(O)[C@]2(O)CC[C@@]3(O)[C@@H]4C[C@H]5O[C@]56[C@@H](O)C=CC(=O)[C@]6(C)[C@H]4CC[C@]23C)C1`, for the setting “dose: 8.0 mg/kg/injection, schedule: Q01DX010 (sc), vehicle: saline”, the T/C is 145 % of control.
As to `O=C(O)CSc1c(Cl)c(=O)oc2ccc(Cl)cc12`, the survivor count reads like this: (dose: 900.0 mg/kg/injection, schedule: Q04DX003 (sc), vehicle: Klucel (hydroxypropylcellulose) (HPC)) 1 of 6 on day 11 and 2 of 6 on day 11; under setting [7], 1 of 6 on day 11; (dose: 1800.0 mg/kg/injection, schedule: Q04DX003 (sc), vehicle: Klucel (hydroxypropylcellulose) (HPC)) 1 of 6 on day 11.
As for `COc1cc2c[n+](C)c3c4cc5c(cc4ccc3c2cc1OC)OCO5`, the survivor count is recorded as 0 of 6 on day 11 under setting [3], 0 of 6 on day 11 under setting [6] and 0 of 6 on day 11 under setting [5].
For `CCCCCCCCCCS(=O)CC(CO)NC(=O)/C=C/c1c(C)[nH]c(=O)[nH]c1=O` (configuration not stated), the survivor count (dose: 75.0 mg/kg/injection, schedule: Q04DX003 (sc), vehicle: distilled water + Tween-80) is reported as 0 of 6 on day 11.
Consider `C=Cc1cnc([N+](=O)[O-])n1C`, for which the survivor count under setting [7] is 0 of 6 on day 11.
Turning to `CCOc1ccc(-c2nc3ccc(-c4nc5ccc(N6CCN(C)CC6)cc5[nH]4)cc3[nH]2)cc1`, the survivor count reads like this: (dose: 50.0 mg/kg/injection, schedule: Q04DX003 (ip), vehicle: saline) 0 of 6 on day 11; (dose: 100.0 mg/kg/injection, schedule: Q04DX003 (ip), vehicle: saline) 0 of 6 on day 11; (dose: 200.0 mg/kg/injection, schedule: Q04DX003 (ip), vehicle: saline) 0 of 6 on day 11.
Take `O=C(Nc1ccccc1C(=O)O)c1cc([N+](=O)[O-])cc([N+](=O)[O-])c1`: the T/C (dose: 400.0 mg/kg/injection, schedule: Q04DX003 (sc), vehicle: saline with Tween-80) was 134 % of control. Besides, under “dose: 800.0 mg/kg/injection, schedule: Q04DX003 (sc), vehicle: saline with Tween-80”, the survivor count is 0 of 6 on day 11.

These data come from PubChem BioAssay AID296 (DTP/NCI, 2004).
